# Measurements reported in PubChem BioAssay AID504842 (National Center for Advancing Translational Sciences (NCATS), 2011).
# Screen size: about 330,000 compounds; about 100 (0.03%) were called active. Inconclusive means that the source gave no clear call. Such entries were picked first, then a sample of the others. Calls come from the whole dose curve; as a rule, active = well fitted inhibition curve with a large enough effect; inconclusive = small, poorly fitted or top-dose-only effect; inactive = flat fitted curve, though single readings scatter. Potencies beside an inconclusive call are fits to weak or partial responses and may not hold up.
# Test system: Chaperonin Mm-Cpn (Methanococcus maripaludis)
# Assay: Inhibitors of TCP-1 ring complex (TRiC) of Methanococcus maripaludis (MmCpn): qHTS; note: nearly all actives have a fitted effect of over 80% in size;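 for Potency: enzyme at 25 nM with ATP substrate at 10 µM during the reaction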
# Conditions: purified Mm-Cpn ATPase, ADP Transcreener TR-FRET; series mostly up to 76.9 µM; activity, negative = inhibition: at the top concentration
# Method in brief: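 Purified archaeal Mm-CPN (25nM final) preincubated 10 min at 37degC with compound, then 10uM ATP for 30 min at 37degC; ADP measured by HTRF Transcreener TR-FRET; buffer 30 mM TRIS pH 7.4, 100mM KCl, 5mM MgCl2, 1mM DTT.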
# % is set by controls: 0 for no effect and ±100 for the full control effect; potency is the fitted concentration of half-maximal effect.
Compound,Potency,"activity, negative = inhibition"
COc1cccc(C(=O)N2C[C@H]3C[C@@H](C2)c2cccc(=O)n2C3)c1,"inconclusive: 89.1 µM [inhibitor, partial curve]",
CCCCn1c(=O)c(C=Nc2ccc(Cl)cc2)c(O)n(Cc2ccco2)c1=O,"inconclusive: 100 µM [inhibitor, single point]",
CCN(CC)S(=O)(=O)c1cccc(N=Nc2c(O)n(CC)c(=S)n(CC)c2=O)c1,"inconclusive: 89.1 µM [inhibitor, single point]",
CCN(C1CCCCC1)S(=O)(=O)c1ccc(S(=O)(=O)N(CC(=O)Nc2ccccc2)C2CC2)cc1,"inconclusive: 79.4 µM [inhibitor, single point]",
Nc1c(C(=O)OCC2CCCO2)c2nc3ccccc3nc2n1Cc1cccs1 (stereo not drawn),"inconclusive: 11.2 µM [inhibitor, single point]",
COc1cccc(C(=O)C2CCCN(C3CCOCC3)C2)c1 (stereo not drawn),"inconclusive: 56.2 µM [inhibitor, partial curve, poor fit]",
CCC(=NCCCN(CC)CC)c1c(O)n(C2CCCCC2)c(=O)[nH]c1=O,,inactive: 0.0982%
CC(=O)O[C@@H]1CC[C@]2(C)C3CC[C@]4(C)C(=O)[C@H](O)CC4C3[C@@H](OC(C)=O)C[C@H]2C1 (stereo partly drawn),"inconclusive: 56.2 µM [inhibitor, single point]",
O=[N+]([O-])c1cc(S(=O)(=O)c2ccc(O)c([N+](=O)[O-])c2)ccc1O,"inconclusive: 100 µM [inhibitor, single point]",
CSc1ccc(C(=O)C2CCCN(Cc3cc4ccccc4[nH]3)C2)cc1 (stereo not drawn),"inconclusive: 100 µM [inhibitor, single point]",
CC12CC[C@H]3[C@@H](CCC4(O)C[C@H](O)CCC34/C=N/NC(=O)c3ccccc3F)C1(O)CCC2C1=CC(=O)OC1 (stereo partly drawn),"inconclusive: 31.6 µM [inhibitor, single point]",
COc1ccc(OC)c(-n2c(O)c(/C=C3\C=Nc4ccccc43)c(=O)[nH]c2=O)c1,,inactive: -1.03%
CCOP(=S)(OCC)Oc1cc(C)oc(=O)c1,,inactive: 1.14%
COC(=O)C1=C(c2cccc(C#N)c2)C[C@@H]2CC[C@H]1N2C(=O)N1CCc2cc(OC)c(OC)cc2C1,"inconclusive: 224 µM [inhibitor, partial curve, poor fit]",
O=c1[nH]c(O)c(N=Nc2ccc([N+](=O)[O-])cc2)c(=O)[nH]1,,inactive: 1.41%
CCN(CC)C(=O)Oc1ccc(OC(=O)N(CC)CC)cc1,"inconclusive: 56.2 µM [inhibitor, single point]",
CNc1ccc2nc3ccccc3[n+](C)c2c1,"inconclusive: 63.1 µM [inhibitor, partial curve]",
COc1cc(/C=C/c2nc3ccccc3c(=O)n2-c2ccc(O)cc2)ccc1O,"inconclusive: 22.4 µM [inhibitor, partial curve, poor fit]",
COc1ccc(C2=NCC(=O)N(CC(=O)NCc3ccco3)c3sc4c(c32)CCCC4)cc1OC,,inactive: 0.159%
O=C1CN=C(c2cccs2)c2c(sc3c2CCCC3)N1,,inactive: -4.54%
C(=C\c1ccccc1)/CN1CCN(Cc2ccc3c(c2)OCCO3)CC1,"inconclusive: 89.1 µM [inhibitor, single point]",

# Whole records from above.
# COC(=O)C1=C(c2cccc(C#N)c2)C[C@@H]2CC[C@H]1N2C(=O)N1CCc2cc(OC)c(OC)cc2C1 in the list: Potency: inconclusive: 224 µM [inhibitor, partial curve, poor fit]
# O=C1CN=C(c2cccs2)c2c(sc3c2CCCC3)N1 in the list: activity, negative = inhibition: inactive: -4.54%

# Next part

Compound,Potency,"activity, negative = inhibition"
CC(C)n1c(=O)c(C=Nc2ccc(Br)cc2)c(O)n(Cc2ccco2)c1=O,"inconclusive: 79.4 µM [inhibitor, single point]",
O=C(c1cc(-c2ccccc2)on1)N1CCC2(CC1)OCCO2,"inconclusive: 100 µM [inhibitor, single point]",
Clc1ccc(OCCCN2CCCC2)cc1Cl,"inconclusive: 89.1 µM [inhibitor, single point]",
O=C(COC(=O)Cc1ccccc1)NC(=O)NC1CCCCC1,"inconclusive: 15.8 µM [inhibitor, single point]",
CCCC[N+]12CCC(CC1)C(C(=O)c1cccs1)C2 (stereo not drawn),"inconclusive: 22.4 µM [inhibitor, single point]",
CCOC(=O)c1ccc(Nc2nc(C)cc(C)n2)cc1,"inconclusive: 15.8 µM [inhibitor, single point]",
COC(=O)c1sccc1NC(=O)c1ccc(C#N)cc1,"inconclusive: 100 µM [inhibitor, single point]",
CNC(C(=O)c1ccccc1)C(OC)c1ccc(C)cc1 (stereo not drawn),,inactive: 2.01%
COC(=O)C1=C(c2ccccc2OCc2ccccc2)C[C@@H]2CC[C@H]1N2C(=O)NCc1ccc(C(C)(C)C)cc1,"inconclusive: 100 µM [inhibitor, single point]",
CN(C)C(=O)Oc1ccc(-c2cn3cc(C(F)(F)F)ccc3n2)cc1,"inconclusive: 89.1 µM [inhibitor, single point]",
Cc1cc(C=C2C(=O)NC(=S)NC2=O)c(C)n1C1CCCC1,,inactive: 1.21%
CSc1ccc(C(c2c(O)c3ccccc3oc2=O)c2c(C)n(C)n(-c3ccccc3)c2=O)cc1 (stereo not drawn),"inconclusive: 56.2 µM [inhibitor, single point]",
CC(=O)c1c(C)n(Cc2ccccc2)c2ccc(O)cc12,"inconclusive: 22.4 µM [inhibitor, single point]",
CCC(=NCc1ccco1)c1c(O)n(C2CCCCC2)c(=O)[nH]c1=O,,inactive: -1.27%
CCOc1ccc(N2C(=O)CC(=O)NC2=O)cc1,,inactive: -0.043%
Cc1ccc(-n2c(O)c(C=Nc3ccc(S(N)(=O)=O)cc3)c(=O)[nH]c2=O)cc1,,inactive: 1.2%
CCOC(=O)C(O)(c1cn(C)c2ccccc12)C(F)(F)F (stereo not drawn),"inconclusive: 22.4 µM [inhibitor, single point]",
Cc1cccc(-n2c(O)c(/C=C3/C(c4ccccc4)=Nc4ccccc43)c(=O)[nH]c2=O)c1,,inactive: -1.48%
CSc1ncc(Cl)c(C(=O)O)n1,"inconclusive: 100 µM [inhibitor, single point]",
CN1C(=O)N(C)C(=O)C2(Cc3cc(NC(=O)c4ccccc4)ccc3N3CCCC32)C1=O (stereo not drawn),,inactive: 0.0207%
COC(=O)C1=C(c2ccc(Cl)c(C(F)(F)F)c2)C[C@@H]2CC[C@H]1N2C(=O)NC(C)C,"inconclusive: 12.6 µM [inhibitor, single point]",

Compound,Potency,"activity, negative = inhibition"
CC(C)CN1CCN(Cc2ccc(F)cc2Cl)CC1CCO (stereo not drawn),"inconclusive: 22.4 µM [inhibitor, single point]",
COC(=O)C1=C(c2ccc(F)cc2F)C[C@@H]2CC[C@H]1N2C(=O)NC1Cc2ccccc2C1,,inactive: 1.52%
O=C(c1cccn2c(=O)c3cc(Cl)ccc3nc12)N1CCC2(CC1)OCCO2,,inactive: -0.854%
CN1CCN(c2ncnc3nc[nH]c23)CC1,"inconclusive: 100 µM [inhibitor, single point]",
COc1cccc(Oc2coc3cc(OC(=O)N(C)C)ccc3c2=O)c1,"inconclusive: 70.8 µM [inhibitor, single point]",
NC(N)=Nc1ccc2[nH]c3c(c2c1)C[C@@]1(O)[C@H]2Cc4ccc(O)c5c4[C@@]1(CCN2CC1CC1)[C@H]3O5,"inconclusive: 200 µM [inhibitor, partial curve, poor fit]",
CN1/C(=C\C=Nc2ccccc2)C(C)(C)c2ccccc21,,inactive: -2.15%
O=C(CN1CCCCC1)Nc1ccc(Br)cc1C(=O)c1ccccc1Cl,"inconclusive: 70.8 µM [inhibitor, partial curve, poor fit]",
Cc1ccc(OCC(=O)N2CCN(Cc3cccnc3)CC2)cc1,"inconclusive: 14.1 µM [inhibitor, single point]",
O=c1[nH]c(=O)n(Cc2ccco2)c(O)c1C=NC1CCN(Cc2ccccc2)CC1,"inconclusive: 70.8 µM [inhibitor, single point]",
O=C(c1ccco1)c1cn(Cc2ccccc2)c2ccccc12,"inconclusive: 100 µM [inhibitor, single point]",
c1ccc(-c2nc(N3CCOCC3)s[n+]2-c2ccccc2)cc1,"inconclusive: 11.2 µM [inhibitor, single point]",
Cc1cc(C)cc(NC(=S)NC2CC3CCC(C2)N3Cc2ccco2)c1 (stereo not drawn),"inconclusive: 22.4 µM [inhibitor, single point]",
Cc1ccc(S(=O)(=O)Nc2cc(C(=O)N3CCC4(CC3)OCCO4)ccc2N2CCCCC2)cc1,,inactive: -0.205%
CCn1ncc(-c2ccnc3cc(C(=O)O)nn23)c1C,"inconclusive: 22.4 µM [inhibitor, single point]",
COc1cc(OC)cc(-c2sc3ccc(OC)cc3c2-c2ccc(OCCN3CCOCC3)cc2)c1,"inconclusive: 44.7 µM [inhibitor, partial curve, poor fit]",
COc1ccccc1N1CCN(Cc2c[nH]c3ccccc23)CC1,"inconclusive: 20 µM [inhibitor, single point]",
CN1CCc2nc(SCc3ccccc3Br)c(C#N)cc2C1,,inactive: -3.33%
CN1CC=C(c2c[nH]c3ccccc23)CC1,,inactive: 1.49%
Cc1ccc(C2C(S(C)(=O)=O)=C(O)C(=O)N2c2ccccc2)cc1 (stereo not drawn) (tested in a mixture with another compound),,inactive: -4.66%
CC1=CC(=O)NP(=O)(Oc2ccc3ccccc3c2)N1 (stereo not drawn),"inconclusive: 112 µM [inhibitor, partial curve, poor fit]",

# Among those listed so far, these contain a halogen.
Compound,Potency,"activity, negative = inhibition"
CCCCn1c(=O)c(C=Nc2ccc(Cl)cc2)c(O)n(Cc2ccco2)c1=O,"inconclusive: 100 µM [inhibitor, single point]",
CC12CC[C@H]3[C@@H](CCC4(O)C[C@H](O)CCC34/C=N/NC(=O)c3ccccc3F)C1(O)CCC2C1=CC(=O)OC1 (stereo partly drawn),"inconclusive: 31.6 µM [inhibitor, single point]",
CC(C)n1c(=O)c(C=Nc2ccc(Br)cc2)c(O)n(Cc2ccco2)c1=O,"inconclusive: 79.4 µM [inhibitor, single point]",
Clc1ccc(OCCCN2CCCC2)cc1Cl,"inconclusive: 89.1 µM [inhibitor, single point]",
CN(C)C(=O)Oc1ccc(-c2cn3cc(C(F)(F)F)ccc3n2)cc1,"inconclusive: 89.1 µM [inhibitor, single point]",
CCOC(=O)C(O)(c1cn(C)c2ccccc12)C(F)(F)F (stereo not drawn),"inconclusive: 22.4 µM [inhibitor, single point]",
CSc1ncc(Cl)c(C(=O)O)n1,"inconclusive: 100 µM [inhibitor, single point]",
COC(=O)C1=C(c2ccc(Cl)c(C(F)(F)F)c2)C[C@@H]2CC[C@H]1N2C(=O)NC(C)C,"inconclusive: 12.6 µM [inhibitor, single point]",
CC(C)CN1CCN(Cc2ccc(F)cc2Cl)CC1CCO (stereo not drawn),"inconclusive: 22.4 µM [inhibitor, single point]",
COC(=O)C1=C(c2ccc(F)cc2F)C[C@@H]2CC[C@H]1N2C(=O)NC1Cc2ccccc2C1,,inactive: 1.52%
O=C(c1cccn2c(=O)c3cc(Cl)ccc3nc12)N1CCC2(CC1)OCCO2,,inactive: -0.854%
O=C(CN1CCCCC1)Nc1ccc(Br)cc1C(=O)c1ccccc1Cl,"inconclusive: 70.8 µM [inhibitor, partial curve, poor fit]",
CN1CCc2nc(SCc3ccccc3Br)c(C#N)cc2C1,,inactive: -3.33%
